Laboratory results published in publication PMC7044438.
No constants are given. Whether binding was seen depends on the method and setting. Some entries that bind do so weakly or less than the wild type.

Chains of the proteins cited; added tags and fusions are not shown.
UniProt P10824: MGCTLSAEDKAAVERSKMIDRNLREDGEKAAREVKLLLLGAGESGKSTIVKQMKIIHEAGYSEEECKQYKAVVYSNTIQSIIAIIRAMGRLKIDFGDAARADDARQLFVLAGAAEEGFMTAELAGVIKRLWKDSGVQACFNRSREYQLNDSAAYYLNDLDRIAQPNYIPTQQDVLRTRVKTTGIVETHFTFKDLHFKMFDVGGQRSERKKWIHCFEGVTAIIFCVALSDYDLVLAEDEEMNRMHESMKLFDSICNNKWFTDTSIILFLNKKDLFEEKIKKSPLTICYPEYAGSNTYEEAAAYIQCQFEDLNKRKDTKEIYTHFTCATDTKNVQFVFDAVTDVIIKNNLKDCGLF

Target: Gαi1 (as used for cross-linking, immunisation, nanobody screening and the unpublished Gαi:Nb9156 crystal structure) (rat) (UniProt P10824)
Assay: cross-linking; 20 μM Ric-8A:Gαi1 complex in 20 mM PBS pH 7.4, 1 mM DTT, with K100 and BS3, room temperature 30 min; SDS-PAGE and Western blot; both purified

B1: Ric-8A (as used for cross-linking, immunisation and nanobody screening) (protein, UniProt Q80ZG1 1-530)
chain: MEPRAVADALETGEEDAVTEALRSFNREHSQSFTFDDAQQEDRKRLAKLLVSVLEQGLSPKHRVTWLQTIRILSRDRSCLDSFASRQSLHALACYADIAISEEPIPQPPDMDVLLESLKCLCNLVLSSPTAQMLAAEARLVVRLAERVGLYRKRSYPHEVQFFDLRLLFLLTALRTDVRQQLFQELHGVRLLTDALELTLGVAPKENPLVILPAQETERAMEILKVLFNITYDSVKREVDEEDAALYRYLGTLLRHCVMADAAGDRTEEFHGHTVNLLGNLPLKCLDVLLALELHEGSLEFMGVNMDVINALLAFLEKRLHQTHRLKECVAPVLSVLTECARMHRPARKFLKAQVLPPLRDVRTRPEVGDLLRNKLVRLMTHLDTDVKRVAAEFLFVLCSESVPRFIKYTGYGNAAGLLAARGLMAGGRPEGQYSEDEDTDTEEYREAKASINPVTGRVEEKPPNPMEGMTEEQKEHEAMKLVNMFDKLSRHRLIQPMGMSPRGHLTSLQDAMCETMEGQLSSDPDSDPD
  binding: binds
